PubChem BioAssay AID1259254 | NCATS | 2017

- Screen: 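Finding genes that stop cells copying their DNA twice in one cycle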 (primary screen)
- System: human HCT116 colorectal cancer cells
- Reagents: single siRNA against human genes
- Time to read-out: 3 days
- Measured: 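Nuclei stained with Hoechst and imaged; cell-cycle phase assigned by DNA content; G2 share scaled per plate, non-targeting siRNA 0%, GMNN siRNA 100%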
- Direction: G2 robust z-score and G2 cells, % of GMNN control: higher = more G2 cells, more excess DNA replication
- Call rule: 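An siRNA counts as active if its G2 robust z-score lies at least 5 MADs above the screen median; here such calls match roughly 38% of GMNN control or more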
Shown is a random part of about 59,000 deposited reagents. About 1,550 of them (2.6%) count as active. 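G2 share is only a proxy for re-replication; each gene was hit by three separate siRNAs, and active genes were retested.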 Reagents against one gene are numbered here. Further read-outs or replicates are left out here. Not stated in the record: the amount of reagent.

RUSC1 #1
- G2 robust z-score: -0.902
- G2 cells, % of GMNN control: -3.38
- Outcome: inactive

RUSC1 #2
- G2 robust z-score: -0.299
- G2 cells, % of GMNN control: 0.866
- Outcome: inactive

RUSC1 #3
- G2 robust z-score: -0.313
- G2 cells, % of GMNN control: 0.765
- Outcome: inactive

GPRACR #1
- G2 robust z-score: -0.868
- G2 cells, % of GMNN control: -3.14
- Outcome: inactive

GPRACR #2
- G2 robust z-score: -0.397
- G2 cells, % of GMNN control: 0.178
- Outcome: inactive

GPRACR #3
- G2 robust z-score: 0.139
- G2 cells, % of GMNN control: 3.95
- Outcome: inactive

NEURL1 #1
- G2 robust z-score: -0.465
- G2 cells, % of GMNN control: -0.304
- Outcome: inactive

NEURL1 #2
- G2 robust z-score: 0.279
- G2 cells, % of GMNN control: 4.93
- Outcome: inactive

NEURL1 #3
- G2 robust z-score: -1.04
- G2 cells, % of GMNN control: -4.38
- Outcome: inactive

MLST8 #1
- G2 robust z-score: -0.838
- G2 cells, % of GMNN control: -2.93
- Outcome: inactive

MLST8 #2
- G2 robust z-score: 3.09
- G2 cells, % of GMNN control: 24.7
- Outcome: inactive

MLST8 #3
- G2 robust z-score: 3.16
- G2 cells, % of GMNN control: 25.2
- Outcome: inactive

OTUD7A #1
- G2 robust z-score: -0.467
- G2 cells, % of GMNN control: -0.318
- Outcome: inactive

OTUD7A #2
- G2 robust z-score: -0.665
- G2 cells, % of GMNN control: -1.71
- Outcome: inactive

OTUD7A #3
- G2 robust z-score: 5.33
- G2 cells, % of GMNN control: 40.5
- Outcome: active

GRM1 #1
- G2 robust z-score: -0.512
- G2 cells, % of GMNN control: -0.638
- Outcome: inactive

GRM1 #2
- G2 robust z-score: 1.85
- G2 cells, % of GMNN control: 16
- Outcome: inactive

GRM1 #3
- G2 robust z-score: -0.628
- G2 cells, % of GMNN control: -1.45
- Outcome: inactive

BCAP31 #1
- G2 robust z-score: -0.445
- G2 cells, % of GMNN control: -0.163
- Outcome: inactive

BCAP31 #2
- G2 robust z-score: -0.517
- G2 cells, % of GMNN control: -0.67
- Outcome: inactive

BCAP31 #3
- G2 robust z-score: 2.73
- G2 cells, % of GMNN control: 22.2
- Outcome: inactive

CFAP45 #1
- G2 robust z-score: 3.41
- G2 cells, % of GMNN control: 27
- Outcome: inactive

CFAP45 #2
- G2 robust z-score: 0.228
- G2 cells, % of GMNN control: 4.57
- Outcome: inactive

CFAP45 #3
- G2 robust z-score: 1.92
- G2 cells, % of GMNN control: 16.5
- Outcome: inactive

MEAF6 #1
- G2 robust z-score: 2.3
- G2 cells, % of GMNN control: 19.1
- Outcome: inactive

MEAF6 #2
- G2 robust z-score: 0.0711
- G2 cells, % of GMNN control: 3.47
- Outcome: inactive

MEAF6 #3
- G2 robust z-score: 0.624
- G2 cells, % of GMNN control: 7.36
- Outcome: inactive

PRR19 #1
- G2 robust z-score: -0.3
- G2 cells, % of GMNN control: 0.856
- Outcome: inactive

PRR19 #2
- G2 robust z-score: 1.36
- G2 cells, % of GMNN control: 12.5
- Outcome: inactive

PRR19 #3
- G2 robust z-score: -0.786
- G2 cells, % of GMNN control: -2.56
- Outcome: inactive

A run of entries taken from the entries so far:
CFAP45 #2
- G2 robust z-score: 0.228
- G2 cells, % of GMNN control: 4.57
- Outcome: inactive

CFAP45 #3
- G2 robust z-score: 1.92
- G2 cells, % of GMNN control: 16.5
- Outcome: inactive

MEAF6 #1
- G2 robust z-score: 2.3
- G2 cells, % of GMNN control: 19.1
- Outcome: inactive

MEAF6 #2
- G2 robust z-score: 0.0711
- G2 cells, % of GMNN control: 3.47
- Outcome: inactive
